{"source": "PubChem BioAssay AID743458 (Peter MacCallum Cancer Centre, 2014)", "assay": "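Find knock-downs that make vorinostat-resistant colon cancer cells sensitive again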 (follow-up of hits)", "cells": "human HCT116-VR colon cancer cells made resistant to vorinostat", "reagent": "single siRNA or pool against human genes, 25 nM per single siRNA", "timing": "about 72 h after transfection, including 24 h of drug", "conditions": "vorinostat, 2.5 µM final, for 24 h", "read-out": "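Live-cell fluorescent viability and luminescent caspase 3/7 activity after vorinostat treatment, background subtracted, mean of duplicate plates, as fold change over mock-transfected wells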", "direction": "viability relative to mock: higher = more living cells than mock; caspase activity relative to mock: higher = more apoptosis than mock", "hit rule": "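An siRNA counts as active if classed as reduced viability or as caspase activation, otherwise inactive; a hit class needed wells that remained healthy in the absence of drug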", "note": "In all, the deposit lists about 1,800 reagents; shown is an unselected part. Over the whole deposit, 732 (41%) were called active. 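Calls are per siRNA reagent; a gene was deemed confirmed only if most of its four siRNAs scored.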 Reagents against one gene are numbered here. Reagent sequences are not shown."}
{"gene": "P2RX2", "reagent no.": 1, "viability relative to mock": 0.83, "caspase activity relative to mock": 1.94, "viability hit class": "no change", "caspase hit class": "no change", "call": "inactive"}
{"gene": "P2RX2", "reagent no.": 2, "viability relative to mock": 0.72, "caspase activity relative to mock": 2.62, "viability hit class": "no change", "caspase hit class": "caspase activation", "call": "active"}
{"gene": "P2RX2", "reagent no.": 3, "viability relative to mock": 0.74, "caspase activity relative to mock": 0.84, "viability hit class": "no change", "caspase hit class": "no change", "call": "inactive"}
{"gene": "P2RX2", "reagent no.": 4, "viability relative to mock": 0.68, "caspase activity relative to mock": 4.04, "viability hit class": "no change", "caspase hit class": "caspase activation", "call": "active"}
{"gene": "SCRT2", "reagent no.": 1, "viability relative to mock": 0.84, "caspase activity relative to mock": 0.92, "viability hit class": "no change", "caspase hit class": "no change", "call": "inactive"}
{"gene": "SCRT2", "reagent no.": 2, "viability relative to mock": 0.31, "caspase activity relative to mock": 3.41, "viability hit class": "reduced viability", "caspase hit class": "caspase activation", "call": "active"}
{"gene": "SCRT2", "reagent no.": 3, "viability relative to mock": 0.56, "caspase activity relative to mock": 2.57, "viability hit class": "reduced viability", "caspase hit class": "no change", "call": "active"}
{"gene": "SCRT2", "reagent no.": 4, "viability relative to mock": 0.9, "caspase activity relative to mock": 4.01, "viability hit class": "no change", "caspase hit class": "caspase activation", "call": "active"}
{"gene": "SERTAD1", "reagent no.": 1, "viability relative to mock": 0.52, "caspase activity relative to mock": 3.38, "viability hit class": "reduced viability", "caspase hit class": "caspase activation", "call": "active"}
{"gene": "SERTAD1", "reagent no.": 2, "viability relative to mock": 0.9, "caspase activity relative to mock": 3.3, "viability hit class": "no change", "caspase hit class": "caspase activation", "call": "active"}
{"gene": "SERTAD1", "reagent no.": 3, "viability relative to mock": 0.72, "caspase activity relative to mock": 1.48, "viability hit class": "no change", "caspase hit class": "no change", "call": "inactive"}
{"gene": "SERTAD1", "reagent no.": 4, "viability relative to mock": 0.7, "caspase activity relative to mock": 2.75, "viability hit class": "no change", "caspase hit class": "caspase activation", "call": "active"}
{"gene": "SNRPA1", "reagent no.": 1, "viability relative to mock": 0.38, "caspase activity relative to mock": 1.34, "viability hit class": "reduced viability", "caspase hit class": "no change", "call": "active"}
{"gene": "SNRPA1", "reagent no.": 2, "viability relative to mock": 0.64, "caspase activity relative to mock": 1.41, "viability hit class": "no change", "caspase hit class": "no change", "call": "inactive"}
{"gene": "SNRPA1", "reagent no.": 3, "viability relative to mock": 0.35, "caspase activity relative to mock": 2.53, "viability hit class": "reduced viability", "caspase hit class": "no change", "call": "active"}
{"gene": "SNRPA1", "reagent no.": 4, "viability relative to mock": 0.4, "caspase activity relative to mock": 1.53, "viability hit class": "reduced viability", "caspase hit class": "no change", "call": "active"}
{"gene": "SAP130", "reagent no.": 1, "viability relative to mock": 0.84, "caspase activity relative to mock": 2.46, "viability hit class": "no change", "caspase hit class": "no change", "call": "inactive"}
{"gene": "SAP130", "reagent no.": 2, "viability relative to mock": 0.42, "caspase activity relative to mock": 3.76, "viability hit class": "reduced viability", "caspase hit class": "caspase activation", "call": "active"}
{"gene": "SAP130", "reagent no.": 3, "viability relative to mock": 0.51, "caspase activity relative to mock": 4.98, "viability hit class": "reduced viability", "caspase hit class": "caspase activation", "call": "active"}
{"gene": "SAP130", "reagent no.": 4, "viability relative to mock": 0.7, "caspase activity relative to mock": 4.13, "viability hit class": "no change", "caspase hit class": "caspase activation", "call": "active"}
{"gene": "NTN1", "reagent no.": 1, "viability relative to mock": 0.72, "caspase activity relative to mock": 1.9, "viability hit class": "no change", "caspase hit class": "no change", "call": "inactive"}
{"gene": "NTN1", "reagent no.": 2, "viability relative to mock": 0.82, "caspase activity relative to mock": 1.97, "viability hit class": "no change", "caspase hit class": "no change", "call": "inactive"}
{"gene": "NTN1", "reagent no.": 3, "viability relative to mock": 0.15, "caspase activity relative to mock": 1.33, "viability hit class": "reduced viability", "caspase hit class": "no change", "call": "active"}
{"gene": "NTN1", "reagent no.": 4, "viability relative to mock": 0.6, "caspase activity relative to mock": 1.68, "viability hit class": "no change", "caspase hit class": "no change", "call": "inactive"}
